Reference: PubChem BioAssay AID1053208 (Peter MacCallum Cancer Centre, 2014)
This is an unselected part of about 17,000 reagents tested. In the full data, 788 (4.7%) were called active. 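Calls rest on z-score classes alone; an extra cut-off of viability at most 70% of control was not applied to them.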 Unmarked entries are inactive. Reagent sequences are not shown.

Purpose: 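Find knock-downs that sensitise mouse osteosarcoma cells to doxorubicin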 (primary screen)
Cells: mouse osteosarcoma cells, early-passage culture from an engineered mouse model of fibroblastic bone tumour
Reagent: siRNA pool against mouse genes, 40 nM
Time to read-out: about 120 h (48 h before drug, then 72 h with drug)
Challenge: doxorubicin 100 nM for 72 h, roughly 30-40% inhibitory dose
Read-out: 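Viability read as ATP luminescence after 72 h of 100 nM doxorubicin or none, duplicate wells averaged, scaled to non-targeting siRNA, then expressed as robust z-scores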
Scale: viability z-score with doxorubicin and doxorubicin viability vs non-targeting: higher = more viable cells under doxorubicin; viability z-score without drug: higher = more viable cells with knock-down alone; z-score of drug to no-drug ratio: higher = less drug sensitisation by knock-down
Rule for the call: 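a pool counts as active when its viability z-score with doxorubicin is -2 or below and its z-score without drug lies between -2 and 2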

target,combined z-score class,viability z-score with doxorubicin,viability z-score without drug,z-score of drug to no-drug ratio,doxorubicin viability vs non-targeting
Rhag (GeneID 19743),no change with or without drug,-0.22,-0.17,0,0.92
Stbd1 (GeneID 52331),high cell count without drug only,0,2.36,-1.35,0.94
Prr5l (GeneID 72446),high cell count with doxorubicin only,2.14,1.35,1.35,1.13
Vwc2l (GeneID 320460),no change with or without drug,-0.22,1.35,-1.01,0.92
Mical3 (GeneID 194401),no change with or without drug,0.34,-0.84,1.12,0.97
Or51l4 (GeneID 259102),no change with or without drug,-0.9,-1.18,0,0.86
Bag1 (GeneID 12017),high cell count with doxorubicin only,3.04,1.85,1.8,1.21
Gzf1 (GeneID 74533),no change with or without drug,0.45,1.18,-0.22,0.98
Gm10033 (GeneID 378466),low cell count with doxorubicin only (active),-2.02,-0.17,-1.91,0.76
Smtnl2 (GeneID 276829),no change with or without drug,0.9,0.34,0.79,1.02
Arr3 (GeneID 170735),no change with or without drug,1.24,-0.17,1.57,1.05
Iqub (GeneID 214704),high cell count with and without drug,2.02,3.54,-0.11,1.12
Selenom (GeneID 114679),no change with or without drug,0,-0.51,0.45,0.94
Zdhhc5 (GeneID 228136),no change with or without drug,-0.45,1.18,-1.12,0.9
Slc5a11 (GeneID 233836),no change with or without drug,-1.8,-0.51,-1.46,0.78
Cnr2 (GeneID 12802),no change with or without drug,0.67,-0.51,1.24,1
Terf1 (GeneID 21749),no change with or without drug,0.11,1.52,-0.79,0.95
Efhd2 (GeneID 27984),no change with or without drug,-1.35,0,-1.35,0.82
Angptl1 (GeneID 72713),no change with or without drug,-0.79,-0.51,-0.34,0.87
Ndufaf3 (GeneID 66706),no change with or without drug,0.34,-1.01,1.24,0.97

In a second layout: 3 of the entries above.
{"target": "Rhag (GeneID 19743)", "combined z-score class": "no change with or without drug", "viability z-score with doxorubicin": -0.22, "viability z-score without drug": -0.17, "z-score of drug to no-drug ratio": 0, "doxorubicin viability vs non-targeting": 0.92}
{"target": "Stbd1 (GeneID 52331)", "combined z-score class": "high cell count without drug only", "viability z-score with doxorubicin": 0, "viability z-score without drug": 2.36, "z-score of drug to no-drug ratio": -1.35, "doxorubicin viability vs non-targeting": 0.94}
{"target": "Prr5l (GeneID 72446)", "combined z-score class": "high cell count with doxorubicin only", "viability z-score with doxorubicin": 2.14, "viability z-score without drug": 1.35, "z-score of drug to no-drug ratio": 1.35, "doxorubicin viability vs non-targeting": 1.13}
